Experimental data as given in PubChem BioAssay AID2551 (National Center for Advancing Translational Sciences (NCATS), 2010).
Among all 310,000 compounds or so, about 17,000 (5.5%) were called active. This list was built around the results that the source calls inconclusive (neither active nor inactive); the mix of calls is not that of the screen. Calls come from the whole dose curve; as a rule, active = well fitted inhibition curve with a large enough effect; inconclusive = small, poorly fitted or top-dose-only effect, or effect the other way; inactive = no such curve, though single readings can be large or run the other way. A potency beside an inconclusive call is a rough fit, not a confirmed value.

By UniProt entry, the sequences of proteins in these tests, tags left out. Where a name states a change or a piece, a line headed by the entry shows the natural chain unless it says otherwise.
UniProt P51450: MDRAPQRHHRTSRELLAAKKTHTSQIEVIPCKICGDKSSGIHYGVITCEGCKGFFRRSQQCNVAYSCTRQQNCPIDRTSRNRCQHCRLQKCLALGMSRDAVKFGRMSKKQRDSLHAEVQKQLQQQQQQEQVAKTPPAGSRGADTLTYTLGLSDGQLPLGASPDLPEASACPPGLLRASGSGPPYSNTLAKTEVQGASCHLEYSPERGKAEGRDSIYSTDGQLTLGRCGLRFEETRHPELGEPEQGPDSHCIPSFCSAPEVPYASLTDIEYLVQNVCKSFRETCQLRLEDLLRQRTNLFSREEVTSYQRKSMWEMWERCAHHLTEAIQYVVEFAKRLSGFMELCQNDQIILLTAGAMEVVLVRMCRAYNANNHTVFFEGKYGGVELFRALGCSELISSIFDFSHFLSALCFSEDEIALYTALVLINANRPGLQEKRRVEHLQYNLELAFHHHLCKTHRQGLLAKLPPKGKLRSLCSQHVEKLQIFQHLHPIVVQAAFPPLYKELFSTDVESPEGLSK

molecular target: Nuclear receptor ROR-gamma (Mus musculus) (UniProt P51450); assay: qHTS for inhibitors of ROR gamma transcriptional activity; details: Drosophila S2 Gal4-RORgamma UAS-luciferase reporter, 20 h; activity change, negative = inhibition: at 53.6 µM (top of the series); note: nearly all actives have a fitted effect of over 60% in size
In short: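 Read-out: Photinus luciferase luminescence; inhibitors lower reporter signal. Insect Schneider cells with Gal4-ROR gamma fusion under metallothionein promoter, UAS reporter; 700 uM final copper sulfate induction, 20 hr, ambient temperature.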
% is set by controls: 0 for no effect and ±100 for the full control effect; potency is the fitted concentration of half-maximal effect.

Potency, inconclusive:
CCN(CC)S(=O)(=O)c1ccc(C)c(NC(=O)CSc2nc3ccccc3[nH]2)c1 31.6 µM [activator, single point]
O=C(NCc1ccc2c(c1)OCO2)O[C@@H]1C(=O)c2cc(Br)ccc2O[C@H]1c1ccc2c(c1)OCO2 25.1 µM [activator, single point]
Nc1ccccc1Nc1ccncc1[N+](=O)[O-] 15.8 µM [inhibitor, single point]
CN(c1ccccc1)S(=O)(=O)c1ccc(NC(=O)c2ccco2)cc1 10 µM [activator, partial curve]
Cc1cc(C(=O)NCc2cccs2)ccc1[N+](=O)[O-] 10 µM [activator, partial curve, poor fit]
COc1ccc(-c2cn(-c3ccc(C)c(C)c3)c(=S)[nH]2)cc1OC 1.26 µM [inhibitor, full curve, poor fit]
Cc1ccc(Cl)cc1NC(=S)N(Cc1ccccc1)Cc1cccnc1 11.2 µM [inhibitor, partial curve, poor fit]
N#C/C(=C(/O)COc1cccc2ccccc12)c1nc2ccccc2[nH]1 2.51 µM [inhibitor, full curve, poor fit]
COc1ccc(CNC(=O)/C=C/c2ccc(S(=O)(=O)NCc3ccco3)cc2)cc1OC 12.6 µM [activator, partial curve]
CCN(CCNC(=O)Nc1ccc(Cl)cc1)c1ccccc1 31.6 µM [activator, single point]
Cc1nc(NC(=O)c2ccccc2)sc1-c1csc(Nc2cccc(Cl)c2)n1 7.94 µM [activator, partial curve]
CCCN(CCC)CCCNC(=O)c1cc2cc3ccc(Cl)cc3nc2o1 2.82 µM [activator, partial curve, poor fit]
CC1CC(C)(C)NC(=S)S1 (centres undefined) 22.4 µM [inhibitor, single point]
COc1ccc2c(c1OC)C(=O)N(c1cccc(C(F)(F)F)c1)C2 0.501 µM [activator, full curve, poor fit]
O=C(Nc1cccc(S(=O)(=O)N2CCOCC2)c1)c1ccc(Cl)c([N+](=O)[O-])c1 22.4 µM [inhibitor, single point]
C/C(CC(=O)NCc1ccco1)=N\NC(=O)Cc1ccc(Cl)cc1 22.4 µM [inhibitor, single point]
COc1ccc(-c2cc(-c3ccccc3)c(C#N)c(S(C)(=O)=O)n2)cc1 3.16 µM [inhibitor, partial curve]
Cc1cccc(N2CCN(Cc3nc(-c4ccccc4Cl)oc3C)CC2)n1 0.0355 µM [inhibitor, full curve, poor fit]
COc1ccc(C2/C=C\CN(Cc3ccccc3)C(C)C(=O)N2Cc2ccc(F)cc2)cc1 (centres undefined) 35.5 µM [activator, single point]
O=C(Nc1ccc(Cc2nc3ccccc3s2)cc1)c1ccncc1 11.2 µM [activator, partial curve]
Cc1cnc(NC(=O)c2cccs2)s1 14.1 µM [inhibitor, single point]
COc1ccc(Cl)cc1N1C(=O)/C(=C\c2sccc2C)N=C1SCC(=O)NC1CC1 11.2 µM [activator, partial curve]
CCC(=O)c1cc(F)c(N2CCN(S(=O)(=O)c3ccc(C)cc3)CC2)cc1C 22.4 µM [activator, single point]
COc1ccc(S(=O)(=O)Nc2ccccc2OC)cc1NC(=O)c1cc2ccccc2oc1=O 2 µM [activator, partial curve]
O=C(NN=C1CCCC1)c1ccccc1O 22.4 µM [inhibitor, single point]
N#Cc1c(SCC(=O)Nc2ccc(C(F)(F)F)cc2)sc2c(O)cc(=O)[nH]c12 11.2 µM [activator, partial curve]
O=c1cc(CSc2nnc(COc3ccccc3Cl)o2)nc2sccn12 17.8 µM [activator, single point]
COc1ccc(NC(=O)c2cc3c(s2)CCC(C)C3)cc1S(=O)(=O)N1CCOCC1 (centres undefined) 10 µM [activator, partial curve]
Nc1nnnn1/N=C/c1cccc(OCc2ccccc2Cl)c1 20 µM [inhibitor, single point]
N#CCCN(C(=O)Nc1ccc(Cl)cc1)c1ccccc1 35.5 µM [activator, single point]
O=C(Nc1ccccc1)c1ccc(S(=O)(=O)NCC2CCCO2)cc1 (centres undefined) 25.1 µM [activator, single point]
Oc1cccc(-c2nc3c4c(ncn3n2)-c2ccccc2CC42CCCC2)c1 35.5 µM [inhibitor, single point]
N=c1oc2ccccc2cc1-c1nc2ccccc2c(=O)[nH]1 35.5 µM [inhibitor, single point]
Cn1nnnc1SCCNCc1ccccc1OCc1ccccc1Cl 6.31 µM [activator, single point]
COc1cccc(CN2CCN(c3cccc(C(F)(F)F)c3)CC2)c1OC 3.16 µM [activator, single point]
O=C1CCCc2cc3c(cc21)CC1(C3)Cc2cc3c(cc2C1)C(=O)CCC3 35.5 µM [inhibitor, single point]
Cc1nc2cc(-c3cccc(F)c3)nn2c(C)c1CCC(=O)N1CCN(c2ccccn2)CC1 0.355 µM [activator, partial curve]
Nc1nc(NCc2ccco2)nc(N2CCN(Cc3ccccc3)CC2)c1[N+](=O)[O-] 15.8 µM [activator, single point]
CCOc1cccc(/C=N/Nc2nc(N3CCCC3)nc(N3CCCC3)n2)c1O 11.2 µM [inhibitor, single point]
Cc1scc(C(=O)N2CCN(S(C)(=O)=O)CC2)c1-c1ccccc1 0.0794 µM [inhibitor, full curve, poor fit]
Cc1cccc(NC(=O)c2ccc(S(=O)(=O)N(C)C)cc2)n1 2.24 µM [activator, partial curve, poor fit]
C=CCNC(=O)COC(=O)COc1ccc(Cl)cc1C 3.98 µM [activator, full curve]
O=C(Nc1ccc(-n2nncc2-c2ccco2)cc1)c1cc2ccccc2oc1=O 35.5 µM [inhibitor, single point]
Cc1cccc(/C=N/n2c(-c3ccccn3)n[nH]c2=S)c1 35.5 µM [inhibitor, single point]
Cc1cccc(NC(=O)c2ccc(S(=O)(=O)C(F)F)cc2)c1C 1.41 µM [activator, single point]

Potency, active:
Oc1ccc(Cl)cc1/C=C/c1ccc2cccc(O)c2n1 3.16 µM
CC(=O)c1cccc(NC(=S)Nc2ccn(Cc3cccc4ccccc34)n2)c1 2.82 µM
O=C(O)c1ccc(/C=C/c2ccc3cccc(O)c3n2)cc1 2.82 µM
Nc1nc(Sc2c([N+](=O)[O-])cc(C(F)(F)F)cc2[N+](=O)[O-])n[nH]1 10 µM
CC(=O)c1c(C)[nH]c(C(=O)Nc2ccc(S(=O)(=O)N(C)C)cc2)c1C 0.224 µM
O=C1CC(N2CCCCC2)C(=O)N1c1ccccc1 (centres undefined) 10 µM
CC1=NN(c2nc(C)cc(C)n2)C(=O)C1CCC(C)C (centres undefined) 2 µM

Activity change, negative = inhibition, inactive:
COc1ccc(C(=O)N2CCN(c3ccc(NC(=O)c4ccco4)cc3)CC2)cc1 -0.234%
CSc1ccc(CCNC(=O)CN2C(=O)c3cccnc3Oc3ccc(C)cc32)cc1 -3.85%
CC1CCN(Cc2nnnn2CCCC(=O)N(C)C2CCOC2)CC1 (centres undefined) -7.07%
CCCCc1cc(=O)oc2c(CN3CCN(C)CC3)c(O)ccc12 39.5%
CN1CCN(c2ncc3nc(-c4cc(F)cc(F)c4)c(=O)n(C4CC4)c3n2)CC1 -25.9%
O=c1[nH]c2c(s1)C(c1ccc(O)cc1)C1C3CCC(C3)C1S2 (centres undefined) 14.8%
O=C1[C@H]2[C@H]3[C@H](O)[C@H](O)C/C(=N/OC[C@@H](O)COCc4ccco4)[C@H]3CC[C@@H]2C(=O)N1Cc1ccccc1 -0.199% [at 10 µM]
CS(=O)(=O)c1cnc(-c2cccnc2)nc1N 0.563%
O=c1nc2n(c3c1oc1ccccc13)Cc1ccccc1-2 -11.4%
CCOC(=O)C(C)On1c(-c2cccc(Cl)c2)nc2ccc([N+](=O)[O-])cc21 (centres undefined) 22.7%
Cc1nc(SCC(=O)NCC2CCCO2)c2c3c(sc2n1)CCC3 (centres undefined) -39.9%
CCN(CC)S(=O)(=O)c1cccc(NC(=O)CNc2cccc(S(=O)(=O)N3CCCC3)c2)c1 -34.7%
Cc1cc2nc3c(=O)n(C4CCCCC4)c(=O)[nH]c3nc2cc1N 7.18%
COn1c(-c2ccc(Cl)cc2)nc2ncccc21 6.88%
CC(=O)c1ccc(Nc2cc(C)nc3ccccc23)cc1 1.77%
CCn1cc(S(=O)(=O)c2ccc(OC)cc2)c(=O)c2cc(F)c(N3CCN(C)CC3)cc21 -20%
COc1ccc(CNC(=O)CCSCc2ccccc2C)cc1 -0.364%

Five entries already listed, arranged by molar mass, rising:
Activity change, negative = inhibition, inactive:
COn1c(-c2ccc(Cl)cc2)nc2ncccc21 6.88%
O=c1[nH]c2c(s1)C(c1ccc(O)cc1)C1C3CCC(C3)C1S2 (centres undefined) 14.8%
CC1CCN(Cc2nnnn2CCCC(=O)N(C)C2CCOC2)CC1 (centres undefined) -7.07%
CN1CCN(c2ncc3nc(-c4cc(F)cc(F)c4)c(=O)n(C4CC4)c3n2)CC1 -25.9%
CCn1cc(S(=O)(=O)c2ccc(OC)cc2)c(=O)c2cc(F)c(N3CCN(C)CC3)cc21 -20%
